US20250075147A1, “FRAGRANCE AND FLAVOR COMPOSITIONS COMPRISING NEW FLAVOR AND FRAGRANCE INGREDIENTS” (priority 2023, published 2025)

Tests used:
[1] = system: odor evaluation panel; test: Odor evaluation panel rating of odorants by Rate-All-That-Apply (RATA) method with 55-word odor lexicon, plus intensity and pleasantness; design: species or system human; conditions: for Floral: mean panelist score for odor label floral (RATA); for Fruity: mean panelist score for odor label fruity (RATA); for Spicy: mean panelist score for odor label spicy (RATA); for Sweet: mean panelist score for odor label sweet (RATA); for Pleasantness: mean panelist score for odor pleasantness
[2] = Evaluation by trained and/or certified flavor or fragrance chemists or master perfumers; categorization by commercial prospect; conditions: for Rating: category of commercial prospect, (A) highest > (B) > (C) > (D) lowest, (E) requires further study; for Rating (category of commercial prospect): evaluation by trained flavor or fragrance chemists or master perfumers

Compound | Floral [1] | Fruity [1] | Spicy [1] | Sweet [1] | Rating [2] | Pleasantness [1] | Rating (category of commercial prospect) [2]
C1=Cc2ccccc2C1 [Compound 321, 1H-indene] | 0.306 | 0 | 0 | 0.222 | (D) |  | 
CC1CCCC(C)C1O (centres unmarked) [Compound 905, 2,6-dimethylcyclohexan-1-ol] | 0.062 | 0 | 0.094 | 0.344 |  | 4.206 | (C)
Cc1nc(N)sc1C [Compound 45, 4,5-dimethyl-1,3-thiazol-2-amine] | 0.031 | 0 | 0.156 | 1.031 | (B) | 5.316 | 
CCOc1cnccn1 [Compound 913, 2-ethoxypyrazine] | 0 | 0 | 0.545 | 0.515 |  | 6.109 | (D)
CCOC(=O)CC(=O)c1ccncc1 [Compound 502, ethyl 3-oxo-3-pyridin-4-ylpropanoate] | 0.312 | 0.531 | 0.094 | 0.656 | (A) | 5.219 | 
CC(C)(C)OC(=O)CCC(=O)O [Compound 711] | 0.091 | 0 | 0 | 0.273 |  | 5.521 | (D)
COC(=O)C1=CCCC1 [Compound 229, methyl cyclopentene-1-carboxylate] | 0.417 | 0.889 | 0.056 | 0.722 | (A) |  | 
CC(=O)Sc1ccccc1 [Compound 352, S-phenyl ethanethioate] | 0 | 0 | 0.406 | 0 | (A) | 2.697 | 
CC(=NO)C(C)(C)C [Compound 193, N-(3,3-dimethylbutan-2-ylidene)hydroxylamine] | 0 | 0 | 0.4 | 0.033 | (A) | 3.323 | 
C=CC(=O)NC(C)C [Compound 569, N-propan-2-ylprop-2-enamide] | 0.139 | 0 | 0.139 | 0 |  |  | (D)
CCN(Cc1ccccc1)c1ccccc1 [Compound 457, N-benzyl-N-ethylaniline] | 1.743 | 0.6 | 0.086 | 1.371 | (D) | 6.134 | 
Cc1ccccc1OC(C)C [Compound 87, 1-methyl-2-propan-2-yloxybenzene] | 0.444 | 0.056 | 0.139 | 0.278 | (D) |  | 
CC(=O)C12CC3CC(CC(C3)C1)C2 [Compound 414, 1-(1-adamantyl)ethanone] | 0.171 | 0.457 | 0 | 0.771 | (B) | 5.346 | 
[(2S)-1-methoxy-3-[(2-methylpropan-2-yl)oxy]-1-oxopropan-2-yl]azanium [Compound 314] | 0.167 | 0.267 | 0.1 | 0.833 | (A) | 5.167 | 
C=C(C)C(=O)OCCC(C)OC(=O)C(=C)C (centres unmarked) [Compound 18, 3-(2-methylprop-2-enoyloxy)butyl 2-methylprop-2-enoate] | 0.083 | 0.25 | 0.167 | 0.111 | (A) |  | 
CCOC(=O)C[C@H](O)CC#N [Compound 132, ethyl (3R)-4-cyano-3-hydroxybutanoate] | 0.281 | 0.562 | 0 | 0.594 | (C) | 6.103 | 
COC(OC)c1ccncn1 [Compound 582, 4-(dimethoxymethyl)pyrimidine] | 0.094 | 0 | 0.688 | 0.156 |  | 4.281 | (A)
CCCCCC1CCC(=O)CC1 [Compound 627, 4-pentylcyclohexan-1-one] | 0.353 | 0.529 | 0 | 0.559 |  | 5.056 | (D)
COc1ccc2nc(C)ccc2c1 [Compound 906, 6-methoxy-2-methylquinoline] | 0.367 | 0.7 | 0.167 | 1.4 |  | 4.68 | (D)
O=C1CC(c2ccccc2)C(=O)O1 (centres unmarked) [Compound 474, 3-phenyloxolane-2,5-dione] | 0.056 | 0 | 0.083 | 0.167 | (D) |  | 
CCCCOCCOCCOCCCC [Compound 834, 1-[2-(2-butoxyethoxy)ethoxy]butane] | 0.444 | 0.806 | 0 | 0.556 |  |  | (D)
CC(C)(C)c1ccc(CS)cc1 [Compound 638, (4-tert-butylphenyl)methanethiol] | 0 | 0 | 0.361 | 0.083 |  |  | (D)
COc1ccccc1C(C)C [Compound 539, 1-methoxy-2-propan-2-ylbenzene] | 0.111 | 0 | 0.306 | 0.111 | (A) |  | 
CC(=O)c1ccsc1 [Compound 453, 1-thiophen-3-ylethanone] | 0.226 | 0.194 | 0.161 | 1.129 | (B) | 5.271 | 
c1ccc(C2CCCCC2)cc1 [Compound 109, cyclohexylbenzene] | 0.778 | 0.333 | 0.278 | 0.556 | (B) |  | 
C1=CCC2CC=CC2C1 (centres unmarked) [Compound 149, 3a,4,7,7a-tetrahydro-1H-indene] | 0.2 | 0.029 | 0.114 | 0.171 | (D) | 4.943 | 
CC1=CC(=O)C(C)=C(C)C1=O [Compound 183, 2,3,5-trimethylcyclohexa-2,5-diene-1,4-dione] | 0.469 | 0.188 | 0.375 | 0.844 | (B) | 4.166 | 
CC(=NO)c1ccccc1 [Compound 241, N-(1-phenylethylidene)hydroxylamine] | 0.969 | 0.188 | 0.094 | 0.781 | (D) | 5.066 | 
